No constants are given. Whether binding was seen depends on the method and setting. In cells and extracts the contact can be indirect. Some entries that bind do so weakly or less than the wild type.
Target: T1, peroxisomal proliferator-γ coactivator-1α (PGC-1α) (human (endogenous in HK-2)) (UniProt Q9UBK2)
T1 sequence: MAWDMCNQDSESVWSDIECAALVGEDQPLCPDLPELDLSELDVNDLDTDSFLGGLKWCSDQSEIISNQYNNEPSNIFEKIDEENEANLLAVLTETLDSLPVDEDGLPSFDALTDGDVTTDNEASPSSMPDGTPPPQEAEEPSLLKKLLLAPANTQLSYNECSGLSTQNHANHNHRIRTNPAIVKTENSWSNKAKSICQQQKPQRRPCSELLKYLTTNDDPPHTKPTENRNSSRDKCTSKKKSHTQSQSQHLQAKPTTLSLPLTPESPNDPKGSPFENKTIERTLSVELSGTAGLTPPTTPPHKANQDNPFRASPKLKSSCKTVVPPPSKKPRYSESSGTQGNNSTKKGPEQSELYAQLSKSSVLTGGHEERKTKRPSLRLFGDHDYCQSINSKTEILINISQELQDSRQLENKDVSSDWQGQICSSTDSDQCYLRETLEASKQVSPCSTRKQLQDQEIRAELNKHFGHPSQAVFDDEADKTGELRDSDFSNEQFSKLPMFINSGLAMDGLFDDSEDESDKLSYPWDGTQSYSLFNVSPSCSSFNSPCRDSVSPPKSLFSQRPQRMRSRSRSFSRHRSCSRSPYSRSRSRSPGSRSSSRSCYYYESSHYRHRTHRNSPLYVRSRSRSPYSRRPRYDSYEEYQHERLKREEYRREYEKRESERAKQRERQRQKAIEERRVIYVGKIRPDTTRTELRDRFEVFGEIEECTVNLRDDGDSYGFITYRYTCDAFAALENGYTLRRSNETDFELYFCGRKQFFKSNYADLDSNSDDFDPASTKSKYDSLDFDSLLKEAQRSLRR
Assay: co-IP; endogenous proteins in lysates of control and MA-treated (1 mM, 24 h) HK-2 cells; Protein A/G magnetic beads with antibody, 1 h at room temperature; western blot

Chains of the proteins cited; added tags and fusions are not shown. Residues count along the entry.
UniProt P05091, residues 18-517: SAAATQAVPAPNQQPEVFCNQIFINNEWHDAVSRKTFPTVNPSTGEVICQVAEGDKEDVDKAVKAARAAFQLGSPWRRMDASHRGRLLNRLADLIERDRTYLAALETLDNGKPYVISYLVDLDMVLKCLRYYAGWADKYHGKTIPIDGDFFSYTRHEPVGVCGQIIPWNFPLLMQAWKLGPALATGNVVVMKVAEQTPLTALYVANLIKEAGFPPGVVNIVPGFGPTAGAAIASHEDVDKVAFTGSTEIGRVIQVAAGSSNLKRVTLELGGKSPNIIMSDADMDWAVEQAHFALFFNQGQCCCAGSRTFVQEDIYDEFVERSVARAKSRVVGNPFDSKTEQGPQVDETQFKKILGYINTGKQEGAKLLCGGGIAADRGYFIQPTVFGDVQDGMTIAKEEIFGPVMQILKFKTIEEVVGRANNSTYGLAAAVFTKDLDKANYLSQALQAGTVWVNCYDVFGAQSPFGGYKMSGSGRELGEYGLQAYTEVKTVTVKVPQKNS

binding: binds
Substance: Aldehyde dehydrogenase 2 (ALDH2), endogenous (from UniProt P05091 18-517) (enzyme)

Source: PMC9860042
